Measurements published in article PMC11798873.

Amino acid sequences for entries named in this document (tags omitted). A change or cut given only in a name is not applied to a line headed by its entry.
UniProt O95718: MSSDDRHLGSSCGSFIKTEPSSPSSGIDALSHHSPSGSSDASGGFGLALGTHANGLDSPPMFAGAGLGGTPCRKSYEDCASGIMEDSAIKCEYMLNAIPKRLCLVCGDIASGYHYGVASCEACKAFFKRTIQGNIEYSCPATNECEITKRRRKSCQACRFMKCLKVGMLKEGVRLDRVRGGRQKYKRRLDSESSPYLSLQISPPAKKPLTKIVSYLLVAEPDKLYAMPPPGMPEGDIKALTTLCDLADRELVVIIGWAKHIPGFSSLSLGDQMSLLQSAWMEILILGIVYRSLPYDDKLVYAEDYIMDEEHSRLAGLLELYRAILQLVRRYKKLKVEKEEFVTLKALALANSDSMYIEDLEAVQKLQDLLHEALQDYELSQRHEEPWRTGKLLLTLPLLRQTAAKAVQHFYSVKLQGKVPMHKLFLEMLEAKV
UniProt Q61312: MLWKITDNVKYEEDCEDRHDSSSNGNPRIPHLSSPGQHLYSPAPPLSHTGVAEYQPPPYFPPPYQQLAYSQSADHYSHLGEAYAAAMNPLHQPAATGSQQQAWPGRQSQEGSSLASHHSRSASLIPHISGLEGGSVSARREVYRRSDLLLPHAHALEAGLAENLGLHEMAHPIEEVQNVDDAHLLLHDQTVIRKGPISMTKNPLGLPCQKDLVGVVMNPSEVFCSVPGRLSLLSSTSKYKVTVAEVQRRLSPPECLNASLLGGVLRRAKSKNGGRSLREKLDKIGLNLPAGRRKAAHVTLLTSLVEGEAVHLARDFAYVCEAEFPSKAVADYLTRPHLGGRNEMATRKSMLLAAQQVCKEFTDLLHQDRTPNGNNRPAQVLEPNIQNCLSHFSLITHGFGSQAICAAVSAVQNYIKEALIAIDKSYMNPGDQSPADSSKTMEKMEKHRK

Biological target: ESRRB (human) (UniProt O95718)
Experiment: co-IP; anti-EOMES or anti-ESRRB on Dynabeads A and G; blot for TFAP2C; constant EOMES with increasing ESRRB, or constant ESRRB with increasing EOMES (amounts of transfected plasmid)

binding: binds
Substance: TFAP2C (from UniProt Q61312 1-449)

These are yes or no findings as the source states them, for the method shown. In cells and extracts the contact can be indirect. Binding can be weak; no strength is given.
